Publication PMC4773014
These are yes or no findings as the source states them, for the method shown. Binding seen in cells or lysates may run through a third protein. Binding calls can cover weak binding; strength is not graded here. Where a sequence is shown, tags or fusion partners need not be part of it.

Target: GFP substituted for the CLCA2 ectodomain, with CLCA2 TMS only (cytoplasmic tail removed) (human)
Assay: co-IP; cDNAs co-transfected (HEK293T named for Fig 1); lysates immunoprecipitated and immunoblotted with antibodies to FLAG, CLCA2 (TVE20) or GFP; buffer with 0.5% NP40

- binding: binds
B1: Epithelial V-like Antigen 1 (EVA1), FLAG-tagged (protein, UniProt O60487 27-215)
chain: VEIYTSRVLEAVNGTDARLKCTFSSFAPVGDALTVTWNFRPLDGGPEQFVFYYHIDPFQPMSGRFKDRVSWDGNPERYDASILLWKLQFDDNGTYTCQVKNPPDVDGVIGEIRLSVVHTVRFSEIHFLALAIGSACALMIIIVIVVVLFQHYRKKRWAERAHKVVEIKSKEEERLNQEKKVSVYLEDTD
